Source: the supplement of paper PMC10849652
The list shows a part of the results.

Amino acid sequences for entries named in this document (tags omitted). A change or cut given only in a name is not applied to a line headed by its entry.
UniProt Q9NUM4, whole entry, looked up: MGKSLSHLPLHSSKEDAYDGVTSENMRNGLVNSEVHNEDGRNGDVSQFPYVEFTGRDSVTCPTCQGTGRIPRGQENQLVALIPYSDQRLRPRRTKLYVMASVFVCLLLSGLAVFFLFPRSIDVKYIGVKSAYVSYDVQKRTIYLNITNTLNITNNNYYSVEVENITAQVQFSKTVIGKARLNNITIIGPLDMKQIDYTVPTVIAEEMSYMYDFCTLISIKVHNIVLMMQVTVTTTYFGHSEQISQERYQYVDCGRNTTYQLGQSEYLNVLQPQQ
UniProt Q9Y320, whole entry, looked up: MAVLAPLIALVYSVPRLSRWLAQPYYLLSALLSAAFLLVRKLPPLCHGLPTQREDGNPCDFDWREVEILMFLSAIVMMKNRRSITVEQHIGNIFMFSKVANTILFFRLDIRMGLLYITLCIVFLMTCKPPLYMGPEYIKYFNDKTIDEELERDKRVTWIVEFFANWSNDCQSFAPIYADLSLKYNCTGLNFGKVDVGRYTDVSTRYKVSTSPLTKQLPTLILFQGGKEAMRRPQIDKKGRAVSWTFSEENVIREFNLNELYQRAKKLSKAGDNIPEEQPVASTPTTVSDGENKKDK
UniProt Q9UM00: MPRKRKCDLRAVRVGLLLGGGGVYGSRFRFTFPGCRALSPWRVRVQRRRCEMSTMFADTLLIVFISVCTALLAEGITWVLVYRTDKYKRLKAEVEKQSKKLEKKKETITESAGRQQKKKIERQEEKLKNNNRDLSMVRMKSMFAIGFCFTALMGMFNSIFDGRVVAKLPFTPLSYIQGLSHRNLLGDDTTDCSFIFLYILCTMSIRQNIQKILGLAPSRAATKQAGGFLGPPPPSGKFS
UniProt Q9Y2Y6: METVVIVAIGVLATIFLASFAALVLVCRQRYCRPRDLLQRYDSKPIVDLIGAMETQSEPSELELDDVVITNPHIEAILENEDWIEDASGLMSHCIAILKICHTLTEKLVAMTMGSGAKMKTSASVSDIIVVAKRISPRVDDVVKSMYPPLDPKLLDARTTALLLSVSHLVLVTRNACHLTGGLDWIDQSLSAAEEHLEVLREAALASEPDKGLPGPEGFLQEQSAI
UniProt A5PLL7: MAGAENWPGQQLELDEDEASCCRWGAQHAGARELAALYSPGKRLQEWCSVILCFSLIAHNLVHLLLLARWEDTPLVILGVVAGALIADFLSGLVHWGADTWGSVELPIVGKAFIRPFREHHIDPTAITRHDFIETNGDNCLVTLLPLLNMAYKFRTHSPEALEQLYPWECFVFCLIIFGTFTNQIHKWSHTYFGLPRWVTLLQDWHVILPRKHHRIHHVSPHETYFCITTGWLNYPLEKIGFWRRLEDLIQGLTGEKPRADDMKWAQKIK
UniProt P49755: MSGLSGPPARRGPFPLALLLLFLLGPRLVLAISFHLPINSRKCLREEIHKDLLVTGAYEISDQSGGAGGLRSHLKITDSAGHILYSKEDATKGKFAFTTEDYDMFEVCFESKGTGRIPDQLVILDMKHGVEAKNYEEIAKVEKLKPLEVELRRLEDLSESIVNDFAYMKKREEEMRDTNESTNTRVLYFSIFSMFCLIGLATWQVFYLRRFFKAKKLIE
UniProt O14763, whole entry, looked up: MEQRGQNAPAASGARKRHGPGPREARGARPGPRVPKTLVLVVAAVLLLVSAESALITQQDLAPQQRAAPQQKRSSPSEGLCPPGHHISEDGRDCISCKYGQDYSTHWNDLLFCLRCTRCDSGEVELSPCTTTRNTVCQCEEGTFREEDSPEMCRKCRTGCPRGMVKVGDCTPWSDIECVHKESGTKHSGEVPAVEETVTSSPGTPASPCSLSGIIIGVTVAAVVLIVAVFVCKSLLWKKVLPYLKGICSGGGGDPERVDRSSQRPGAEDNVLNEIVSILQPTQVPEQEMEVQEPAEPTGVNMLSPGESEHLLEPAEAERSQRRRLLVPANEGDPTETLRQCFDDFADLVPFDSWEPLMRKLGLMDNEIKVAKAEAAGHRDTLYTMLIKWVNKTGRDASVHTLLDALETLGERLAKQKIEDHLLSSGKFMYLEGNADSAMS
UniProt Q6ZXV5: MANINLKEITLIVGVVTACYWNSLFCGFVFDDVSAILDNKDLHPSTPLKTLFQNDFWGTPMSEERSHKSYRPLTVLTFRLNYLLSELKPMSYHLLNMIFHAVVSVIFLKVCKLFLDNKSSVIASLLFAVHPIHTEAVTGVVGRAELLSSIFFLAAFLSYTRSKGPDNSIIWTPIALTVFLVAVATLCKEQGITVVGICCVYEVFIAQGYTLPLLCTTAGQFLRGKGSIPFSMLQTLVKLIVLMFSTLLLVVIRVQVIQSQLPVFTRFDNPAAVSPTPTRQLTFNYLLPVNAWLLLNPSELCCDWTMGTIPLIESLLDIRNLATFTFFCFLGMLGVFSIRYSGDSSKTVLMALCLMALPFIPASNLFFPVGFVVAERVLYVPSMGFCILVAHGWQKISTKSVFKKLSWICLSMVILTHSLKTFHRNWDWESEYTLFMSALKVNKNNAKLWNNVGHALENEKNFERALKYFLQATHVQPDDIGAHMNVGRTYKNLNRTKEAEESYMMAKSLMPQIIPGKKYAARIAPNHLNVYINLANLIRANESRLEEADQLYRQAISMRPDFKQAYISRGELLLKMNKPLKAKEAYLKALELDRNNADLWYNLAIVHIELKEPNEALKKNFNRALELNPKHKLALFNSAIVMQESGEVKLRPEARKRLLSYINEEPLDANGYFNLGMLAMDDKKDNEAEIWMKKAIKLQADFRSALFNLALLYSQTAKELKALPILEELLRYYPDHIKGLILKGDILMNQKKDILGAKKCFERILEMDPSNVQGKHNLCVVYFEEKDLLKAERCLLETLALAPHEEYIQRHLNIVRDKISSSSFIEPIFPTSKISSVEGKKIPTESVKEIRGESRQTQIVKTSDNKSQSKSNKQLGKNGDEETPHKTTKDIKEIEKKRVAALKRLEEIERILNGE
UniProt Q0VDI3: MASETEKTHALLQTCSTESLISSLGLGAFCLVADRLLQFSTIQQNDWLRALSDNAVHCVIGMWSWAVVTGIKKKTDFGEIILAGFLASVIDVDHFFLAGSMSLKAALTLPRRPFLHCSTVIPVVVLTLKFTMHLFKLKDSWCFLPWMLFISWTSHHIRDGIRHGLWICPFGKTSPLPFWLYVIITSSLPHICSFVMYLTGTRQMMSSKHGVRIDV

Experiments:
Experiment in all cases: log2 fold change, soluble protein after heating vs DMSO (PISA); higher = thermal stabilisation; K562 cells, 10 uM, 30 min; active = over 0.2 and 3.5 SD of the protein, either way, in both replicates (recomputed)
[1] = compound: C1=CC=C(C=C1)[C@H](COC2=CC3=C(C=C2)NC(=O)N3)NC(=O)C4=CC=CN(C4=O)CC5=CC(=C(C=C5)F)F
How it was run: (§1)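 For each measurement, 10 μM compound was applied for 30 min to K562 cells at 2×10^6 cells/mL. Aliquots were heated for 3 min across 48°C-58°C, pooled, and extracted in PBS with 0.5% NP-40 at 4°C; the supernatant after 21,000xg for 90 min was soluble protein. This was quantified by TMTpro 16plex LC-MS/MS with channel sums equalised, and thermal stability was reported relative to control samples from duplicates, on a log2 fold-change scale.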

[2] = compound: CC1=C(SC2=C1C(=N[C@H](C3=NN=C(N32)C)CC(=O)N)C4=CC=C(C=C4)Cl)C
How it was run: as §1

[3] = compound: CC1=C2C(=CC=C1)N=C(N(C2=O)C3=CC=CC=C3C)CN4C=NC5=C(N=CN=C54)N
How it was run: as §1

[4] = compound: Cc1sc2c(c1C)C(c1ccc(Cl)cc1)=N[C@@H](CC(=O)OC(C)(C)C)c1nnc(C)n1-2
How it was run: as §1

[5] = compound: c1ccc([C@@H]2C[C@H]2NC2CCNCC2)cc1
How it was run: as §1

Measured: log2 fold change

TMEM106B (UniProt Q9NUM4)
inactive: [1] 0.039 | [2] -0.022 | [3] -0.008 | [4] -0.097 | [5] 0.034

TMX2 (UniProt Q9Y320)
inactive: [1] -0.039 | [2] 0.057 | [3] 0.035 | [4] -0.147 | [5] -0.033

TMCO1 (UniProt Q9UM00)
inactive: [1] -0.112 | [2] 0.082 | [3] 0.017 | [4] 0.036 | [5] -0.018

TMEM98 (UniProt Q9Y2Y6)
inactive: [1] -0.022

TMEM263 (UniProt Q8WUH6)
inactive: [1] -0.152 | [2] 0.047 | [3] 0.156 | [4] -0.072 | [5] -0.031

TMEM189 (UniProt A5PLL7)
inactive: [1] 0.067 | [2] 0.06 | [3] 0.013 | [4] -0.072 | [5] 0.054

TMED10 (UniProt P49755)
inactive: [1] 0.035 | [2] 0.058 | [3] 0.015 | [4] -0.029 | [5] -0.021

TNFRSF10B (UniProt O14763)
inactive: [1] 0.132 | [2] 0.065 | [3] 0.059 | [4] -0.071 | [5] -0.064

TMTC3 (UniProt Q6ZXV5)
inactive: [1] -0.012 | [2] 0.019 | [3] 0.011 | [4] -0.034 | [5] 0.005

TMEM267 (UniProt Q0VDI3)
inactive: [1] 0.064 | [2] 0.173 | [3] 0.027 | [4] 0.217 | [5] -0.082
